Taken from: PubChem BioAssay AID652259 (Drosophila RNAi Screening Center, 2013)

Purpose: 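Genome-wide hunt for genes that control Wingless pathway activity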 (primary screen)
Cells: Drosophila clone 8 imaginal disc epithelial cells
Knock-down reagent: long dsRNA against Drosophila genes
Conditions: pathway stimulated by co-transfected Wingless expression plasmid
Detection: 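Dual luciferase reads per well after Wingless plasmid stimulation: reporter firefly light and Renilla control light; activity is firefly divided by Renilla, a ratio not deposited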
Direction: firefly reporter light: higher = more Wg reporter light, before normalisation; Renilla control light: higher = more transfected or surviving cells
Hit rule: 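Strong candidates differ from their plate mean by at least two out of four per-plate statistical tests; weak candidates meet just one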
Meaning of the calls: active = candidate regulator (raises or lowers reporter); inactive = not a candidate
The deposit covers about 22,000 reagents; shown is a random part of those that have a named target and a result. Of all reagents, 233 (1.1%) are marked active. 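Light values are raw, unnormalised plate reads; the ratio scores behind the reporter calls were not deposited.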 Names joined by + are all predicted targets of the reagent. No sequences are given here. The record does not give: the amount of reagent, the time to read-out, the dose of the treatment.

gene	DRSC id	reporter change call, replicate 1	firefly reporter light, replicate 1	firefly reporter light, replicate 2	Renilla control light, replicate 1	Renilla control light, replicate 2	outcome
dsh	DRSC19803	Wg reporter activity lowered	13754		8228		inactive
CG18284	DRSC02661		13969		3895		inactive
CG3703	DRSC18172		31123		16295		inactive
CG3703	DRSC18173		18987		13866		inactive
CG3703	DRSC18643		22528		13648		inactive
CG1523	DRSC15033		2549	4805	923	1770	inactive
CG30088	DRSC21764		2.76e5	2.82e5	1.16e5	1.15e5	inactive
sPLA2	DRSC06041		2853	7936	999	1532	inactive
Mal-A6	DRSC07233		2596	7344	875	3017	inactive
MKP-4	DRSC19567		2994	7495	929	2121	inactive
CG3526	DRSC17240		3331		1179		inactive
CG3526	DRSC18636		17900		13744		inactive
Or24a	DRSC00768		4180	7061	1651	2247	inactive
GstO2	DRSC10691		2891		1545		inactive
Lrpprc2	DRSC18605		3032	6612	925	2626	inactive
Rev1	DRSC08264		17305		5609		inactive
TwdlF	DRSC12225		5056		2778		inactive
betaTub85D	DRSC16910		17350		2957		inactive
CG1979	DRSC12495		3428		1265		inactive
Hsp70Bb + Hsp70Ba + Hsp70Bc + 1 more	DRSC21247		14939		5352		inactive
Hsp70Bb + Hsp70Ba + Hsp70Bc + 1 more	DRSC21248		17340		6661		inactive
CG5112	DRSC15718		2016	5831	1248	3417	inactive
Marf	DRSC18329		2352	7290	480	1841	inactive
CG4080	DRSC10398		3185		1330		inactive
snoRNA:Me28S-C3420b + RpS11	DRSC07396	Wg reporter activity lowered	8082		3644		inactive
CR43670 + grp + CR43671 + 1 more	DRSC03541		6873		752		inactive
Lsp1gamma	DRSC08672		8390		3076		inactive
CG13135	DRSC02232		2134	6548	906	3562	inactive
bbx + waw	DRSC20575		3445	6829	1273	2537	inactive
bbx + waw	DRSC20589		9026		6332		inactive

Not a retest: an excerpt of the list.
gene	DRSC id	reporter change call, replicate 1	firefly reporter light, replicate 1	firefly reporter light, replicate 2	Renilla control light, replicate 1	Renilla control light, replicate 2	outcome
snoRNA:Me28S-C3420b + RpS11	DRSC07396	Wg reporter activity lowered	8082		3644		inactive
CR43670 + grp + CR43671 + 1 more	DRSC03541		6873		752		inactive
Lsp1gamma	DRSC08672		8390		3076		inactive
CG13135	DRSC02232		2134	6548	906	3562	inactive
